Source: article doi:10.1101/2022.12.16.520777

What was measured:
[1] = molecular target: T1, BAM1-RFP (BARELY ANY MERISTEM 1) (UniProt O49545); assay: FRET or BRET
T1 sequence: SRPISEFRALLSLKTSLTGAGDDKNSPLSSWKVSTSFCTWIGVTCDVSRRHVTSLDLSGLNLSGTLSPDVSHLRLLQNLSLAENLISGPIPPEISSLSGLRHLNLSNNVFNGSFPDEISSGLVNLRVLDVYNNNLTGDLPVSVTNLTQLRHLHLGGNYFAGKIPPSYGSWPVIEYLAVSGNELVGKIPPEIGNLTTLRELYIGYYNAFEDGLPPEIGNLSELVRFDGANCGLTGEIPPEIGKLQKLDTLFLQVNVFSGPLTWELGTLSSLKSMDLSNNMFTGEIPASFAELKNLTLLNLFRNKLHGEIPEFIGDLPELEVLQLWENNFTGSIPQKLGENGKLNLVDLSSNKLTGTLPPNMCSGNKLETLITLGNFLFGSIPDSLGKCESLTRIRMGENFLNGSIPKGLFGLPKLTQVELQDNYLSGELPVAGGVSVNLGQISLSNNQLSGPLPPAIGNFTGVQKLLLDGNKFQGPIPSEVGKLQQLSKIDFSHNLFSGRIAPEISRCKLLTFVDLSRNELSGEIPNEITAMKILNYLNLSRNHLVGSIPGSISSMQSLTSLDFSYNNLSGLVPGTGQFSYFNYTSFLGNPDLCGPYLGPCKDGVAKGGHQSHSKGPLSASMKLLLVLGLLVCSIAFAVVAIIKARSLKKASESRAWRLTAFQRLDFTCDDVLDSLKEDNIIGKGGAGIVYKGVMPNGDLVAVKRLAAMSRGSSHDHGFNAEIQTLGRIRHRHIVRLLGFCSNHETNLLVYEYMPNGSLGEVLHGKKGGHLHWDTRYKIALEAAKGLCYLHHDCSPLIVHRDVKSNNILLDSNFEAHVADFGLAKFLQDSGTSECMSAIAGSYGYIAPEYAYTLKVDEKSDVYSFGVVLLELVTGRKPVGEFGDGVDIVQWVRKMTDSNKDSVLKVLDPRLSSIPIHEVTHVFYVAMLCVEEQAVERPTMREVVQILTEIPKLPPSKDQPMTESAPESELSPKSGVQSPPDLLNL

CLV1-RFP (CLAVATA 1) [2] = molecular target: T2, CLV1-RFP (CLAVATA 1) (UniProt Q9SYQ8); assay: FRET or BRET
T2 sequence: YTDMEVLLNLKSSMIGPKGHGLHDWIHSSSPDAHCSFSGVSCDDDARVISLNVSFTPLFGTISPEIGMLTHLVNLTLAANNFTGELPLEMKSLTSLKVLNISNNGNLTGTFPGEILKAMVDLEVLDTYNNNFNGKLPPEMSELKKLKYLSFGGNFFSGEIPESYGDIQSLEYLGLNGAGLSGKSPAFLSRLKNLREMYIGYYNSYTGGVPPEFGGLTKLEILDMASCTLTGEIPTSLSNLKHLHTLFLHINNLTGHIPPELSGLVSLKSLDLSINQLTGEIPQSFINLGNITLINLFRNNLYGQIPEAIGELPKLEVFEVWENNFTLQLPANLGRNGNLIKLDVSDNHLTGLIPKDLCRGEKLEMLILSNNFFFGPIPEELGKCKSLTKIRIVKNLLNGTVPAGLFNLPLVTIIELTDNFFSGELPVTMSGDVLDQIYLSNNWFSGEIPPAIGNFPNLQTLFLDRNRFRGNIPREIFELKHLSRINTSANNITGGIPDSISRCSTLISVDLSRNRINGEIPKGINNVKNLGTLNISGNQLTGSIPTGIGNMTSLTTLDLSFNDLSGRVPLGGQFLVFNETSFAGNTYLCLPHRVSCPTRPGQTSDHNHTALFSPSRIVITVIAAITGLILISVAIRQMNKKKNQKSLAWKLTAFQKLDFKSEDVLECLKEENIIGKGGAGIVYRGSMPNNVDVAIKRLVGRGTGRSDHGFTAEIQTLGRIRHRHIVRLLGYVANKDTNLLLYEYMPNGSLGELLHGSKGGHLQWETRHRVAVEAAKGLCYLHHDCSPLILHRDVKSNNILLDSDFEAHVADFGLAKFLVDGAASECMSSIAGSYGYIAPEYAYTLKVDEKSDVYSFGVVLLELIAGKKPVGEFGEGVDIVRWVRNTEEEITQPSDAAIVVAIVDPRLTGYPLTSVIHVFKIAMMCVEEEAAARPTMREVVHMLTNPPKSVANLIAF

[3] = molecular target: T1, BAM1-RFP (BARELY ANY MERISTEM 1); assay: co-IP
CLV1-RFP (CLAVATA 1) [4] = molecular target: T2, CLV1-RFP (CLAVATA 1); assay: co-IP

Measured: binding

C4-GFP (C4 from TYLCV)
binds: all assays above

No constants are given. Whether binding was seen depends on the method and setting. In cells and extracts the contact can be indirect. Binding calls can cover weak binding; strength is not graded here.
